From paper PMC11458857
No constants are given. Whether binding was seen depends on the method and setting. Binding seen in cells or lysates may run through a third protein. Some binding calls cover weakened binding; strength is not graded here.

Chains of the proteins cited; added tags and fusions are not shown.
UniProt Q99MQ3: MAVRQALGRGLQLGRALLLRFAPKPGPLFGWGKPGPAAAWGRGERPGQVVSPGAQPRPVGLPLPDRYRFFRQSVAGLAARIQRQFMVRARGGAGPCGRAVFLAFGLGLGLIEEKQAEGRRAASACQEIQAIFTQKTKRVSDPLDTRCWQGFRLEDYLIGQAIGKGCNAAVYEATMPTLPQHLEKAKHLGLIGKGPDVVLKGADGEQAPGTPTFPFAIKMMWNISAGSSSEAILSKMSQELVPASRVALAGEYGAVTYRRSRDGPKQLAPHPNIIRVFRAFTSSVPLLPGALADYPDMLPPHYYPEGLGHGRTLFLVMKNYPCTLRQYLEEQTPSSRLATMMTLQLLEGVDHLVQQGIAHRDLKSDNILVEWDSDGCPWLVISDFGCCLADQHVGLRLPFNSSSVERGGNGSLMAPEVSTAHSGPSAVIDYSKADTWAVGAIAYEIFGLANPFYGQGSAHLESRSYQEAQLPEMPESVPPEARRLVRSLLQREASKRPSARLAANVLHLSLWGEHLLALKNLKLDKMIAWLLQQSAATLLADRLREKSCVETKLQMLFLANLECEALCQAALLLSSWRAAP

Molecular target: PTEN-induced putative kinase 1 (UniProt Q99MQ3)
Experiment: co-IP; co-immunoprecipitation of BCAP31 and PINK1, with and without LPS treatment; cells, bait and antibodies not stated

binding: binds
B1: B-cell receptor-associated protein 31 (protein, UniProt Q61335 1-245)
chain: MSLQWTTVATFLYAEVFAVLLLCIPFISPKRWQKVFKSRLVELVVTYGNTFFVVLIVILVLLVIDAVREILKYDDVTEKVNLQNNPGAMEHFHMKLFRAQRNLYIAGFSLLLSFLLRRLVTLISQQATLLASNEAFKKQAESASEAAKKYMEENDQLKKGAAEDGDKLDIGNTEMKLEENKSLKNDLRKLKDELASTKKKLEKAENEALAMQKQSEGLTKEYDRLLEEHAKLQASVRGPSVKKEE
